These are yes or no findings as the source states them, for the method shown. Binding can be weak; no strength is given.
Target: Histidine-tagged DLL3 antigen (DLL3-His) (Homo sapiens (Human))
Assay: Carterra array SPR epitope binning with DLL3-His

binding: binds
B1: 2-C8-A (antibody, V domains shown)
VH: EVQLVESGGGLVQPGGSQRLSCAASGFTFSSYWMNWVRQAPGKGLEWVANIKEDGSEKYYVDSVKGRFTISRDNAKNSLYLQMNSLRAEDTAVYYCARDPGWAPFDYWGQGTLVTVSS
VL: DIQMSQSPSSLSASVGDRVTITCRASQGISNYLAWFQQKPGKAPKSLIYAASSLQSGVPSKFSGSGSGTDFTLAISSLQPEDFATYYCQQYNSFPYTFGQGTTLEIK

Source: patent publication US20240115721A1
